Laboratory results as given in patent US7087388.
Results are given in words; binding and its absence hold for the method and conditions named. Binding seen in cells or lysates may run through a third protein. Some results given as binding are weak or reduced against the parent protein; the word gives no strength.

Legend:
[1] = biological target: T1, TRP ion channel (transient receptor potential protein) (Drosophila) (UniProt P19334); test: GST-PDZ fusion pull-down, immunoblot
T1 sequence (looked up): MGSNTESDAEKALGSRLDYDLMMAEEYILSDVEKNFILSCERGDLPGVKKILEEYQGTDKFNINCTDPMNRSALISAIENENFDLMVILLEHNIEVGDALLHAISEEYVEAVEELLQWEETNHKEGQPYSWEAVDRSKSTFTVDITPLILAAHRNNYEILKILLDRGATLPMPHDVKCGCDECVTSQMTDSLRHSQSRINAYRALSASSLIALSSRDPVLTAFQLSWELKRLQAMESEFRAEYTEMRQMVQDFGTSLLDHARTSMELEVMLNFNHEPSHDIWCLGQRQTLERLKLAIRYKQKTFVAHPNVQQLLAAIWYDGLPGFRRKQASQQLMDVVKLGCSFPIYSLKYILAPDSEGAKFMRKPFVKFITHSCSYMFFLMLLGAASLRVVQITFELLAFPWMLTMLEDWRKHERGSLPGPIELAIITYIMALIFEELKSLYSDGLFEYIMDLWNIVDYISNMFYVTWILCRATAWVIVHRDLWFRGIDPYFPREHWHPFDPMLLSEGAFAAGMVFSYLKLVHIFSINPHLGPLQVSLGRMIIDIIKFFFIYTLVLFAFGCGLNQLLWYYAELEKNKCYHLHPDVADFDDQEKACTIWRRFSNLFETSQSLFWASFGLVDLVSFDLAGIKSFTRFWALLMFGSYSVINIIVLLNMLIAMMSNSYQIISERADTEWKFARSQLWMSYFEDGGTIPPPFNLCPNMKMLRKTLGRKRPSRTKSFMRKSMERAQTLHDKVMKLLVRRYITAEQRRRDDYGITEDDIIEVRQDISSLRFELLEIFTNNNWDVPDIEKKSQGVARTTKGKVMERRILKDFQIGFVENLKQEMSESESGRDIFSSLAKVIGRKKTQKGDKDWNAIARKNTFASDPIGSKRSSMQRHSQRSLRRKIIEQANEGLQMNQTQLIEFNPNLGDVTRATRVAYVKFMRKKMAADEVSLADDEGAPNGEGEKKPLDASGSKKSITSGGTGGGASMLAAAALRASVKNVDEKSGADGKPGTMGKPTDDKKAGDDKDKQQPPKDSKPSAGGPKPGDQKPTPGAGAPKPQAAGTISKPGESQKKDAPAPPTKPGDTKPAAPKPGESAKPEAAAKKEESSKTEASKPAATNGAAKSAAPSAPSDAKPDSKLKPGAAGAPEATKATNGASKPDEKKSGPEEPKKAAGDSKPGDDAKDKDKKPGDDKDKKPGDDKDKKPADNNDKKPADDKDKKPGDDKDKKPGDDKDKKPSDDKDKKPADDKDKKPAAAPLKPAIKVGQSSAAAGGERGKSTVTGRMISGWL

[2] = biological target: T1, TRP ion channel (transient receptor potential protein) (Drosophila); test: GST-PDZ fusion pull-down from whole retinal extracts, immunoblot
[3] = biological target: T1, TRP ion channel (transient receptor potential protein) (Drosophila); test: co-immunoprecipitation with anti-INAD antibody from norpA and inaC mutant fly head membranes
[4] = biological target: T2, eye-PKC (photoreceptor-specific protein kinase C) (Drosophila) (UniProt P13677); test: co-immunoprecipitation with anti-INAD antibody, immunoblot
T2 sequence (looked up): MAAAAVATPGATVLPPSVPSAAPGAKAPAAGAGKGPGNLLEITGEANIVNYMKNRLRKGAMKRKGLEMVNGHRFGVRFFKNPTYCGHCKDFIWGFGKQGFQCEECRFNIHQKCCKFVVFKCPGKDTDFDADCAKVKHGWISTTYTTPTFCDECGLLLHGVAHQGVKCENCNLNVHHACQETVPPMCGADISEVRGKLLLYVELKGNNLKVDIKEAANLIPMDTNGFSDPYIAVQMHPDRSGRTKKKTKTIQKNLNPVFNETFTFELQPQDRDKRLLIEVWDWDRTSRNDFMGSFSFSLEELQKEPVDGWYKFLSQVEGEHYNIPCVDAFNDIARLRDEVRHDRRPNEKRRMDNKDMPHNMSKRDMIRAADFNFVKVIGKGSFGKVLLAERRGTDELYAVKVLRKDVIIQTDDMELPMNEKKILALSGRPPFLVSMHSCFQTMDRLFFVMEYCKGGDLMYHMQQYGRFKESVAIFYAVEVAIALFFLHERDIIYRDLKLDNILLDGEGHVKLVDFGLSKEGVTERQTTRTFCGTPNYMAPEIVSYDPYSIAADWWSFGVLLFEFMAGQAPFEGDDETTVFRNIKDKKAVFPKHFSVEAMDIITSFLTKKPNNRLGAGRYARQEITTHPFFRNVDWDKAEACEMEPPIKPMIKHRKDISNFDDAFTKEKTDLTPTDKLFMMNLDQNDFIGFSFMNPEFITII

[5] = biological target: T1, TRP ion channel (transient receptor potential protein) (Drosophila); test: as above
[6] = biological target: T2, eye-PKC (photoreceptor-specific protein kinase C) (Drosophila); test: co-immunoprecipitation with anti-INAD antibody from trp and norpA mutant fly head membranes
[7] = biological target: T2, eye-PKC (photoreceptor-specific protein kinase C) (Drosophila); test: co-immunoprecipitation with anti-INAD antibody from fly head membranes (100 ug), SDS-PAGE and immunoblot
[8] = biological target: T1, TRP ion channel (transient receptor potential protein) (Drosophila); test: as above
[9] = biological target: T2, eye-PKC (photoreceptor-specific protein kinase C) (Drosophila); test: GST fusion pull-down from cell extracts, immunoblot
[10] = biological target: T1, TRP ion channel (transient receptor potential protein) (Drosophila); test: as above

Measured: binding

GST fusion of the third PDZ domain of INAD (N-GST-PDZ 3-C) (from UniProt Q24008 364-448)
binds: [1] | [2]

INAD protein (transducisome protein, fly) (from UniProt Q24008 1-674)
binds: [3] | [4] | [5] | [6] | [7] | [8]

Full length GST-INAD fusion protein (N-GST-INAD-C) (from UniProt Q24008 1-674)
binds: [9] | [10]
